Results are given in words; binding and its absence hold for the method and conditions named. In cells and extracts the contact can be indirect. Some results given as binding are weak or reduced against the parent protein; the word gives no strength.
Experiments:
[1] = biological target: T1, topoisomerase 1 (TOP1), endogenous mouse (mouse (endogenous in brain and cultured neurons)) (UniProt Q04750); assay: proximity ligation; cultured mouse cortical neurons without or with 50 µg/mL tat-P4 peptide, without or with L1 antibody 557; L1 antibody with TOP1 or PPARγ antibody
T1 sequence: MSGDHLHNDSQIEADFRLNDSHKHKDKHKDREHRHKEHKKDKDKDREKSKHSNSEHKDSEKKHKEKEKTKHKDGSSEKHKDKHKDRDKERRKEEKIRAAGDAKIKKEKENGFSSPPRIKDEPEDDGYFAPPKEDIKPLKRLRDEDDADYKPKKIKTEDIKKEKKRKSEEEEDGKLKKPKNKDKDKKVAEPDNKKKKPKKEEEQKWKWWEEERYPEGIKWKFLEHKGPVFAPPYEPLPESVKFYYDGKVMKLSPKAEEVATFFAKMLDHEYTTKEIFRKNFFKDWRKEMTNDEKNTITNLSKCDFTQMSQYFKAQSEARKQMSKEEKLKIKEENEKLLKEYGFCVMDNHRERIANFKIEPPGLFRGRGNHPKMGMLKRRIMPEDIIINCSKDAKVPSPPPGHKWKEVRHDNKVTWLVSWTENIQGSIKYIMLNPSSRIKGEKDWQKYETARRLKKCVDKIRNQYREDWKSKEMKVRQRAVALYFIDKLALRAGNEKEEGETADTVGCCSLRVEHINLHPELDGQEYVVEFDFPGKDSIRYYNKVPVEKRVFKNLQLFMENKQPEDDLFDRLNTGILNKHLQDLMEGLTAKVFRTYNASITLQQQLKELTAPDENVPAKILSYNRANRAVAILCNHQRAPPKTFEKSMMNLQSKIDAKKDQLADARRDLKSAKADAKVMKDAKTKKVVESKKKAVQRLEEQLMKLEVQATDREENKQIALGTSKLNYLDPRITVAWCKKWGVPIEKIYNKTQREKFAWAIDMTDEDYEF

Amino acid sequences for entries named in this document (tags omitted). Residues count along the entry.
UniProt P37238: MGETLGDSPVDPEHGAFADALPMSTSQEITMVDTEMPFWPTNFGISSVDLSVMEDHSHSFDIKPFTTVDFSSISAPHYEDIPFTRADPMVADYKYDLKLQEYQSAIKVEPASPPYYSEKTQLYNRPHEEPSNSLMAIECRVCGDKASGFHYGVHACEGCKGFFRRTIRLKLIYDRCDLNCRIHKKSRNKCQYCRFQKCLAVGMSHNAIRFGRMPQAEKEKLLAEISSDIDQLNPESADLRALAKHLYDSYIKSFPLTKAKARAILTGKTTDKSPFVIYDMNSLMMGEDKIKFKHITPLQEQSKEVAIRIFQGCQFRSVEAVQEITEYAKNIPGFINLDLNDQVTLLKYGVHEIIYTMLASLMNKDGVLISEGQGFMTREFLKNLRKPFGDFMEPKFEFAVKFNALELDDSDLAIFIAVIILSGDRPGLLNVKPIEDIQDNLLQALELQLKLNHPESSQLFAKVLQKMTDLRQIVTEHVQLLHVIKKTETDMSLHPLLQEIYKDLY
UniProt P46096: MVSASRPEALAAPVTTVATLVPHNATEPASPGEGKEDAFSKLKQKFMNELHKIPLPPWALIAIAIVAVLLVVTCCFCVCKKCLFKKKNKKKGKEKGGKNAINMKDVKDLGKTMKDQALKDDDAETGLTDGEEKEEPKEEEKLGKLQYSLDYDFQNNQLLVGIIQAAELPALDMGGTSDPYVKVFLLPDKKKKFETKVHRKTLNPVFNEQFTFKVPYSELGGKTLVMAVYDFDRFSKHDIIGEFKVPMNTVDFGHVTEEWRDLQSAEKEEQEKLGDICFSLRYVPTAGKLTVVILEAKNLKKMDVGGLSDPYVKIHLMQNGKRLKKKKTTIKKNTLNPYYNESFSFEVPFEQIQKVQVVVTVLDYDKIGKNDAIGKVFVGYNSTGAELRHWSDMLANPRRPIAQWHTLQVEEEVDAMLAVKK
UniProt P11627, residues 20-1260: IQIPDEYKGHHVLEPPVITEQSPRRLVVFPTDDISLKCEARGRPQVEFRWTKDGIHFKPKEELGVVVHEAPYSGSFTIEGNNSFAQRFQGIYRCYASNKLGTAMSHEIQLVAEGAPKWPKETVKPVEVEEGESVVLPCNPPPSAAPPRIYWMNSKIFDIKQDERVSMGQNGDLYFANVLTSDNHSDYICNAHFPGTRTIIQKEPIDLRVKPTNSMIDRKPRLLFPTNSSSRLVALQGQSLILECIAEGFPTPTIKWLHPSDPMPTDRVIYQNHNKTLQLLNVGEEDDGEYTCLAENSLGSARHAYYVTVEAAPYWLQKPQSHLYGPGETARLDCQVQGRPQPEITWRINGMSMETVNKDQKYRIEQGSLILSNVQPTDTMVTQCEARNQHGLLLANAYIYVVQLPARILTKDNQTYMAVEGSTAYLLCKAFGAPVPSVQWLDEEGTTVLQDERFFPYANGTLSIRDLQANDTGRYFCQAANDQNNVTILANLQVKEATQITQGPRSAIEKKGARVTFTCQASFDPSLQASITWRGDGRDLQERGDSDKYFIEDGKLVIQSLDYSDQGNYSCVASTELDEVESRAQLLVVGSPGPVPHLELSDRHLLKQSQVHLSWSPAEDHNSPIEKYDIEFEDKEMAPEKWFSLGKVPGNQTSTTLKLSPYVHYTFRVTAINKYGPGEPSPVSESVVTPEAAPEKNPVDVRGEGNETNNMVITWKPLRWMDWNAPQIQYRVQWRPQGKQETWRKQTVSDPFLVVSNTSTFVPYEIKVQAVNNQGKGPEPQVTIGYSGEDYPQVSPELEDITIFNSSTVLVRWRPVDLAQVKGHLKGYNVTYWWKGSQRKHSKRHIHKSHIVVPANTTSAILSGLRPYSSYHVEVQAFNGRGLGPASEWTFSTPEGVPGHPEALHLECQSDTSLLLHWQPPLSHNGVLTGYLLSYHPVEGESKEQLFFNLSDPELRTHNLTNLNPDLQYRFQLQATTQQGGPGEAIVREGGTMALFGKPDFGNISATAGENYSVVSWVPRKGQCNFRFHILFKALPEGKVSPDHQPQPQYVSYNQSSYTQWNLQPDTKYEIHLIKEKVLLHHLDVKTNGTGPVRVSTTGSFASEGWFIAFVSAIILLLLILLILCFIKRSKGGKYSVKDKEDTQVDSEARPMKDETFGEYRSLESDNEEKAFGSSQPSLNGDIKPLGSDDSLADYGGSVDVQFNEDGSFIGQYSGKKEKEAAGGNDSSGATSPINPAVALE

[2] = biological target: peroxisome proliferator-activated receptor γ (PPARγ), endogenous mouse (mouse (endogenous in brain and cultured neurons)) (UniProt P37238); assay: as above
[3] = biological target: T2, non-POU domain-containing octamer-binding protein (NonO), endogenous mouse (mouse (endogenous in cultured cortical neurons)) (UniProt Q99K48); assay: proximity ligation; fixed, permeabilised cultured mouse cortical (and cerebellar) neurons from wild-type or L1 mutant mice; mouse L1 antibody C-2 with goat or rabbit antibodies against the partner, or rabbit L1 antibody ab12399 with mouse antibodies; cells treated with vehicle, 1 µM aprotinin, 50 µg/mL L1 antibody 557 or siRNAs
T2 sequence: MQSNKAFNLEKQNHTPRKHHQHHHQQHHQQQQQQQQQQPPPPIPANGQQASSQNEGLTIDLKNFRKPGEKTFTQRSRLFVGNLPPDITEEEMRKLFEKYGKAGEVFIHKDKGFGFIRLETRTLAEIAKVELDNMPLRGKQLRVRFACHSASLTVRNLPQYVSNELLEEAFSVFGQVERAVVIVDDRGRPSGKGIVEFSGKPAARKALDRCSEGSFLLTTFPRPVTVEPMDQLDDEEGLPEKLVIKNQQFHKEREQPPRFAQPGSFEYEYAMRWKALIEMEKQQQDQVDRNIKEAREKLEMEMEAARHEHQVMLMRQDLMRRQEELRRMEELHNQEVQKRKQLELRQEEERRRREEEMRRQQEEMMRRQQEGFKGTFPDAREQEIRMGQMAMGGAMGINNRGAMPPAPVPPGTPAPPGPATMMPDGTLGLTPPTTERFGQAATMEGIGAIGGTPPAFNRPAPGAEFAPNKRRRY

[4] = biological target: synaptotagmin 1 (SYT1), endogenous mouse (mouse (endogenous in cultured cortical neurons)) (UniProt P46096); assay: as above
[5] = biological target: peroxisome proliferator-activated receptor γ (PPARγ), endogenous mouse (mouse (endogenous in brain and cultured neurons)) (UniProt P37238); assay: as above
[6] = biological target: T3, nucleoporin 93 kDa (Nup93), endogenous mouse (mouse (endogenous in cultured cortical neurons)) (UniProt Q8BJ71); assay: as above
T3 sequence: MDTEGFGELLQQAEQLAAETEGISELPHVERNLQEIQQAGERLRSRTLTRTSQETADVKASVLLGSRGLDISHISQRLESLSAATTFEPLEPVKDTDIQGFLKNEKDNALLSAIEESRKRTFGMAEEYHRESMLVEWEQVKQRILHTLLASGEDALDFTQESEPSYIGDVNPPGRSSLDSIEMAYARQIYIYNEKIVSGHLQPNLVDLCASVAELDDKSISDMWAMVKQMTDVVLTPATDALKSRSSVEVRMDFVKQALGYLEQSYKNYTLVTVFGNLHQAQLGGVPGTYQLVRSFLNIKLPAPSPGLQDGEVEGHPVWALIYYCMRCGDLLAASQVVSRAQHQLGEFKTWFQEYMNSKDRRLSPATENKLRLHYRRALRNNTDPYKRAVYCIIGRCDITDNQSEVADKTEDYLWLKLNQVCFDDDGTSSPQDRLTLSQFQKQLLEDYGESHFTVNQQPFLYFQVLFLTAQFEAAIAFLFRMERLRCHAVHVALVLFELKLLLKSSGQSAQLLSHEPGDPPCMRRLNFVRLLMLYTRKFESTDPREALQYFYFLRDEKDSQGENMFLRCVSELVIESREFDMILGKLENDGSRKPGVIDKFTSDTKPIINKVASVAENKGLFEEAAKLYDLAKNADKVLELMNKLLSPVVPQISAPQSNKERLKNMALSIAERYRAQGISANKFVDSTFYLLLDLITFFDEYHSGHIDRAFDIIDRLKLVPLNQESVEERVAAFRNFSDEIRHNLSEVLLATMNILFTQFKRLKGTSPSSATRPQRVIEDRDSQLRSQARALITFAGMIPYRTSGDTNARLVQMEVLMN

Measured: binding

cell adhesion molecule L1, endogenous in wild-type mouse neurons (from UniProt P11627 20-1260)
binds: all assays above

Source: PMC9916828
